# Measured values: PubChem BioAssay AID1671190 (National Center for Advancing Translational Sciences (NCATS), 2021)
# The chains behind the UniProt entries cited, without tags or fusion partners. Where a name states a change or a piece, a line headed by the entry shows the natural chain unless it says otherwise.
# UniProt P18054: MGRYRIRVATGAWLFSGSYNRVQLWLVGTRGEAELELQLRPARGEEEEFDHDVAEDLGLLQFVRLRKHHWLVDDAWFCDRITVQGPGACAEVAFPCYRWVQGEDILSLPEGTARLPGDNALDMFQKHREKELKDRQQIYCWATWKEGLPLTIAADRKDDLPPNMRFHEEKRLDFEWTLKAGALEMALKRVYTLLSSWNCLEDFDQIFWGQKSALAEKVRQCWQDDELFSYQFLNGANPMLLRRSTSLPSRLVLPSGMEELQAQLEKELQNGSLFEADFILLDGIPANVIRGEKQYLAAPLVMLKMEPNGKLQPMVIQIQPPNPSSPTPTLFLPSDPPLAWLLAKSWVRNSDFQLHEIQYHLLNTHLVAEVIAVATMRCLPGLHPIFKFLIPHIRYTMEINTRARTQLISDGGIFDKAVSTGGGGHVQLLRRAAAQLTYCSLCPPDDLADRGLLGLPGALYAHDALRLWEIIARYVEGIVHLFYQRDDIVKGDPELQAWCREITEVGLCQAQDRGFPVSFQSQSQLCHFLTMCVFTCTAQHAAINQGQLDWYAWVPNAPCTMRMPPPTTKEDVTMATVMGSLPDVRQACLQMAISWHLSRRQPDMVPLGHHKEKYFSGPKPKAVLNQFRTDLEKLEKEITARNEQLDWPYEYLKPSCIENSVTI
# Out of some 580,000 compounds screened, about 6,100 (1.1%) were called active. The inconclusive results got no clear call from the source; some entries with a clear call stand among them for comparison. The call rests on the fitted dose curve; in most records, active means well fitted inhibition curve with a large enough effect; inconclusive means small, poorly fitted or top-dose-only effect, or another doubt; inactive means no such curve, though single readings can be large or run the other way. Potencies beside an inconclusive call are fits to weak or partial responses and may not hold up.
# Target: Polyunsaturated fatty acid lipoxygenase ALOX12 (Homo sapiens) (UniProt P18054)
# Experiment: Primary qHTS assay for inhibitors of human arachidonate 12S-lipoxygenase (ALOX12): Round 2
# Settings: purified 12hLO, xylenol orange hydroperoxide absorbance; activity change, negative = inhibition: at 108 µM (top of the series) unless noted
# Procedure, shortened: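 Purified human 12hLO at 150 nM in 25 mM Hepes, 0.01% Triton X-100, pH 7.0, preincubated 15 min at room temperature with compound. Reaction started with 40 uM arachidonic acid, 30 min at room temperature. Hydroperoxide measured by Fe-xylenol orange, 573/405 nm absorbance ratio.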
# On the % scale 0 is the no-effect control and ±100 the full control effect; potency means the concentration at half of the fitted maximal effect.
Compound,Potency,"activity change, negative = inhibition"
CCN1CCN(S(=O)(=O)c2ccc(Cl)c(C(=O)N(C)Cc3cccc(OC)c3)c2)CC1,"inconclusive: 50.1 µM [inhibitor, partial curve, poor fit]",–
CSc1nc(O)c(N=Nc2ccc(F)cc2F)c(=O)[nH]1,"inconclusive: 39.8 µM [inhibitor, single point]",–
CCOC(=O)C1CCN(C(=O)c2c(C)oc3c2C(=O)c2ccccc2C3=O)CC1,"inconclusive: 3.16 µM [inhibitor, full curve]",–
FC(F)(F)c1cccc(C2=NOC3(CCN(Cc4ccsc4)CC3)C2)c1,"inconclusive: 44.7 µM [inhibitor, partial curve]",–
COCCn1c(C)cc(C(=O)COC(=O)c2cccnc2SC)c1C,"inconclusive: 56.2 µM [inhibitor, partial curve, poor fit]",–
Cc1cccc(-c2noc(-c3cccc(Br)c3)n2)c1,"inconclusive: 35.5 µM [inhibitor, partial curve, poor fit]",–
O=C(Nc1nnc(Cc2c[nH]c3ccccc23)s1)c1ccc(Cl)cc1Cl,"inconclusive: 5.01 µM [inhibitor, full curve, poor fit]",–
COc1ccc(-c2nc3sc(CCNS(=O)(=O)c4ccccc4)c(C)n3n2)cc1,inactive,–
CCN(CC)C(CNS(=O)(=O)c1cccc(C#N)c1)c1ccsc1 (centres undefined),inactive,–
Cc1ccc(-c2ccc(OC(=O)c3ccc(=O)[nH]c3)c(C)c2)cc1,"inconclusive: 112 µM [inhibitor, partial curve, poor fit]",–
CCCOc1ccc(C(=O)Nc2cc3c(cc2N2CCCCC2)n(C)c(=O)n3C)cc1,–,inconclusive: -32.5% [inhibitor]
Cc1ccc(C(=O)N/N=C/C(C)c2ccccc2)c(C)c1 (centres undefined),inactive,–
Cc1ccc2oc(C(=O)Nc3ccc(S(=O)(=O)Nc4nccc(C)n4)cc3)cc(=O)c2c1,"inconclusive: 44.7 µM [inhibitor, partial curve, poor fit]",–
COc1ccc(Br)cc1CNC(=O)CN1C(=O)c2cccnc2Oc2ccc(C)cc21,"inconclusive: 141 µM [inhibitor, partial curve, poor fit]",–
N#Cc1cccc(NC(=O)O[C@@H]2CO[C@H]3[C@@H]2OC[C@@H]3Nc2nccc(-c3ccccc3)n2)c1,inactive,–
Cc1ccc(C)c(NC(=O)C2CCCN2c2ncnc3ccccc23)c1 (centres undefined),"inconclusive: 14.1 µM [inhibitor, partial curve, poor fit]",–
CCCCCCCN(CC)CCCC(O)c1ccc(NS(C)(=O)=O)cc1 (centres undefined),"inconclusive: 0.968 µM [inhibitor, full curve]",–
C#CCNC(=O)c1ccccc1NC(=O)c1cccc2cccnc12,inactive,–
CC(=O)Nc1cccc(-c2csc(Nc3ccc(C)cc3)n2)c1,"inconclusive: 39.8 µM [inhibitor, partial curve, poor fit]",–
CCCOc1ccc(C(=O)Nc2cccc3ncccc23)cc1,"inconclusive: 50.1 µM [inhibitor, partial curve, poor fit]",–
Cc1oc(-c2nc(C#N)c(NC(C)C)o2)cc1S(=O)(=O)N1CCOCC1,"inconclusive: 6.31 µM [inhibitor, full curve, poor fit]",–
Cc1nc(NC(=O)c2ccccc2)sc1-c1csc(Nc2ccccc2Cl)n1,active: 39.8 µM,–

Compound,Potency,"activity change, negative = inhibition"
CCC(=O)N1CCc2cc(S(=O)(=O)NCCC(=O)N3CCN(c4ccccn4)CC3)ccc21,inactive,–
Cc1nc2cc(NC(=O)CC3(C(=O)O)CCCCC3)ccc2o1,inactive,–
Cc1cc(C(=O)N2CCN(S(=O)(=O)c3ccc(F)c(Cl)c3)CC2)c(C)o1,"inconclusive: 100 µM [inhibitor, single point]",–
CN1CCCC(C(=O)Nc2cccc(Cl)c2)CC1 (centres undefined),"inconclusive: 126 µM [inhibitor, single point]",–
CCc1nc(Nc2ccccn2)sc1C,"inconclusive: 20 µM [inhibitor, partial curve, poor fit]",–
CCCOC(=O)c1ccc(NC(=O)COC(=O)C2CCN(c3ccc(C(F)(F)F)cn3)CC2)cc1,"inconclusive: 31.6 µM [inhibitor, partial curve, poor fit]",–
COCc1ccc(C(=O)NC2CCCc3c2cnn3-c2ccc(C)c(C)c2)o1 (centres undefined),"inconclusive: 158 µM [inhibitor, single point]",–
COC(=O)N1CCC2(CCCN(c3ccncc3)C2)CC1,"inconclusive: 31.6 µM [inhibitor, single point]",–
CCOCCOc1nc2c(c(=O)n(C)c(=O)n2C)n1CCc1ccccc1,inactive,–
O=C1c2[nH]nc(-c3ccc(F)cc3)c2C(c2ccccc2F)N1c1ccccc1 (centres undefined),"inconclusive: 7.08 µM [inhibitor, full curve]",–
O=c1cc(Nc2ccc3c(c2)OCCO3)[nH]c(=O)n1-c1ccc(Br)cc1,inactive,–
Cn1c(=O)c2nc(SCc3cccc(F)c3)n(C)c2n(C)c1=O,inactive,–
O=C1OCc2nc3cc4c(cc3c(-c3ccc(F)cc3)c21)OCO4,inactive,–
Cc1cc(C)c(NC(=O)CSc2nnnn2-c2cccnc2)c(C)c1,inactive,–
COc1cccc(CNC(=O)COC(=O)c2cc([N+](=O)[O-])ccc2N2CCCC2)c1,inactive,–
Cc1cccc(NC(=S)Nc2cccc(C)n2)n1,inactive,–
C=C1C[C@]23C[C@@]1(O)CC[C@H]2[C@@]12C=C[C@H](O)[C@@](C)(C(=O)O1)[C@H]2[C@@H]3C(=O)O,"inconclusive: 35.5 µM [inhibitor, partial curve, poor fit]",–
CCS(=O)(=O)NCCc1csc(-c2cccnc2)n1,"inconclusive: 39.8 µM [inhibitor, partial curve, poor fit]",–
COc1ccc(C(=O)N(Cc2ccco2)Cc2ccc(C)o2)cc1,"inconclusive: 0.501 µM [inhibitor, full curve, poor fit]",–
COc1ccc(OCCNC(=O)c2cc3ccccc3[nH]2)cc1,inactive,–
O=S(=O)(N/N=C/c1cccnc1)c1ccc(Cl)c(Cl)c1,"inconclusive: 112 µM [inhibitor, partial curve, poor fit]",–
O=C(CNC(=O)c1ccccc1F)c1ccccc1,inactive,–

# Structures from the list above with a CF3 group, in the order listed:
Compound,Potency,"activity change, negative = inhibition"
FC(F)(F)c1cccc(C2=NOC3(CCN(Cc4ccsc4)CC3)C2)c1,"inconclusive: 44.7 µM [inhibitor, partial curve]",–
CCCOC(=O)c1ccc(NC(=O)COC(=O)C2CCN(c3ccc(C(F)(F)F)cn3)CC2)cc1,"inconclusive: 31.6 µM [inhibitor, partial curve, poor fit]",–
